# The other results are listed elsewhere or left out. These are further read-outs of the screen, such as a control signal, another cell line or another target. No call is given for them. Compounds called inactive in the main read-out are mostly missing here. Words in brackets tell the shape of the fitted curve; partial curves, single points and poor fits give uncertain potencies.
# Assay: qHTS Assay to Find Inhibitors of Chronic Active B-Cell Receptor Signaling
# Conditions: ABC-DLBCL IkBa-CBG/CBR reporter, luminescence ratio (green luciferase fused to IkBa over red control in TMD8 lymphoma cells), 4 h
# Procedure, shortened: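 TMD8 human ABC-DLBCL cells with doxycycline-inducible IκBα–green luciferase fusion and unfused red luciferase, in 0.5% FBS medium; compounds up to 46 uM, 4 h at 37C. Green/red luminescence ratio, filter-overlap corrected, fitted to concentration-response curves.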
# [1] = measured here: CBR red luminescence, cell number
# [2] = measured here: IkBa-CBG green luminescence
SMILES,AC50 [1],AC50 [2]
O=C(NCc1nnc(SCc2ccc(F)cc2)n1-c1ccccc1)C12CC3CC(CC(C3)C1)C2,"29.1 µM [falling, single point]",–
Cc1cccc(Nc2nc(C)nc3c2oc2ccccc23)c1,"12.6 µM [falling, partial curve, poor fit]",–
COc1ccc(Nc2ccc(C(=O)O)cc2[N+](=O)[O-])cc1,"0.116 µM [falling, full curve]",–
Cc1nc2nc(SCC(=O)NCCc3ccc(Cl)cc3)nn2c(C)c1Cc1ccccc1Cl,"14.1 µM [falling, single point]",–
COc1cccc(/C=N/Nc2ccc([N+](=O)[O-])cc2)c1O,"7.94 µM [falling, partial curve, poor fit]",–
O=C(/C=C/c1ccc2ccccc2n1)N1CCN(S(=O)(=O)c2ccccc2F)CC1,"8.91 µM [rising, partial curve, poor fit]",–
Nc1ccc(C(=O)OCC(=O)NC2CC2)cc1[N+](=O)[O-],"8.91 µM [falling, partial curve, poor fit]",–
O=C(/C(N=Nc1cccc(C(F)(F)F)c1)=C(/O)c1cccs1)C(F)(F)F,"0.282 µM [falling, full curve, poor fit]",–
Cc1ccc(-c2nn(CCC(=O)O)cc2/C=C\C(=O)c2ccc(Br)cc2)cc1,"25.1 µM [falling, single point]",–
CCC(=O)N(CCC(c1ccco1)c1ccccc1OC)Cc1cccs1 (centres undefined),"29.1 µM [falling, single point]",–
CO/N=C/C(NC(=O)c1ccc(C(F)(F)F)cc1)C(=O)OC (centres undefined),"35.5 µM [falling, single point]",–
CCCCC(=O)Nc1nnc(SCC(=O)NCC2CCCO2)s1 (centres undefined),"3.66 µM [falling, partial curve, poor fit]",–
CC1(C)NC(=O)N(CCSc2ccc(Cl)cc2)C1=O,"7.31 µM [falling, partial curve, poor fit]",–
Cc1ccc(NC(=O)c2c(O)c3ccccc3n(C)c2=O)nc1,"0.501 µM [falling, full curve]",–
Cc1ccc(-n2cc(CN3CCN(Cc4nccn4C)CC3)c(-c3cccc(C)c3)n2)cc1,"3.55 µM [rising, partial curve, poor fit]",–
COC(=O)/C=C/c1ccc(-n2cncn2)cc1,"35.5 µM [rising, single point]",–
CCC1(C)CC(C(N)=S)CCO1 (centres undefined),"3.16 µM [falling, single point]",–
COC(=O)Cn1c(C)nc2c(sc3nc(C)cc(C)c32)c1=O,"0.411 µM [rising, full curve, poor fit]",–
O=C(COc1ccc2oc(-c3ccco3)cc(=O)c2c1)N1CCCCC1,"6.31 µM [falling, partial curve, poor fit]",–
Cc1nc(NC(=O)CSc2nc3ccccc3s2)sc1C(=O)N(C)C,"12.6 µM [falling, partial curve, poor fit]",–
CCCCNC(=O)OC(C)CNC(=O)Oc1cccc(C)c1 (centres undefined),"29.1 µM [rising, single point]",–

SMILES,AC50 [1],AC50 [2]
CSCCC(NC(=O)COc1ccccc1)C(=O)OCC(=O)c1cc2ccccc2o1 (centres undefined),"1.16 µM [falling, full curve, poor fit]",–
COc1ccccc1C(=O)N/N=C/C(C)=C/c1ccccc1,"0.316 µM [falling, full curve, poor fit]",–
Cn1nnnc1Sc1ccc(C(=O)O)cc1[N+](=O)[O-],"31.6 µM [rising, single point]",–
COc1ccc(OC)c(NC(=O)CSC2=Nc3ccccc3C3=NC(CC(=O)NCc4ccc(F)cc4)C(=O)N23)c1 (centres undefined),"35.5 µM [falling, single point]",–
Cc1cc(C)c(C(=O)COC(=O)CCNS(=O)(=O)c2c(Cl)cccc2Cl)cc1C,"23.1 µM [rising, partial curve, poor fit]",–
CC(C)Cc1nnc(NS(=O)(=O)Cc2ccccc2)s1,"6.51 µM [falling, partial curve]",–
Cc1ccnc(NS(=O)(=O)c2ccc(N=CC3=C(O)CC(C)(C)CC3=O)cc2)n1,"1.3 µM [rising, full curve, poor fit]",–
Cc1noc(C)c1CSc1nnc2ccc3ccccc3n12,"6.51 µM [rising, partial curve, poor fit]",–
Oc1ccc(/C=N/NC(=S)NCc2ccco2)cc1,"7.94 µM [falling, partial curve]",–
Cc1cc(Cl)c2oc(C(=O)NCC(C)(C)N3CCOCC3)c(C)c2c1,"0.398 µM [rising, full curve, poor fit]",–
O=C(Nc1ccc(-c2nc3ccccc3s2)c(OC(=O)c2ccccc2)c1)c1ccccc1,"2.06 µM [rising, full curve, poor fit]",–
COc1ccc([N+](=O)[O-])cc1N(CC(O)CN(CC(C)C)CC(C)C)S(=O)(=O)c1ccccc1 (centres undefined),"7.08 µM [falling, partial curve, poor fit]",–
COC(=O)C1CCN(C(=O)COC(=O)COc2ccc(C#N)cc2)CC1,"35.5 µM [rising, single point]",–
COc1ccc(S(=O)(=O)N2CCOCC2)cc1NC(=O)CCc1cc(OC)c(OC)c(OC)c1,"4.11 µM [rising, full curve, poor fit]",–
Cn1c(=O)c([N+](=O)[O-])c(NCCc2ccccc2)c2ccccc21,"18.4 µM [falling, partial curve, poor fit]",–
COc1cccc(NS(=O)(=O)c2ccc3[nH]cc(C(=O)NC4CC4)c(=O)c3c2)c1,"1.84 µM [falling, full curve, poor fit]",–
c1cnc(SCCOc2cccc3ccccc23)nc1,"0.58 µM [rising, partial curve, poor fit]",–
O=C(CSc1nc2cc(Cl)ccc2s1)c1ccco1,"12.6 µM [rising, partial curve]",–
Cn1c(NC(=O)c2ccc(F)cc2)nc2ccccc21,"10 µM [falling, partial curve, poor fit]",–
CCCc1[nH]n(-c2ccc([N+](=O)[O-])cc2)c(=O)c1C=NCCCn1ccnc1,"35.5 µM [falling, single point]",–
COC(=O)c1cccc(NC(=S)Nc2cc(Cl)ccc2OC)c1,"5.62 µM [falling, single point]",–

SMILES,AC50 [1],AC50 [2]
CCCNc1nc(Nc2ccc(C)cc2)nc(N2CCCC2)n1,"6.51 µM [rising, single point]",–
C=CCNc1nc(NCC)nc(N2CCOCC2)n1,"0.316 µM [rising, full curve, poor fit]",–
Cc1c(CCC(=O)N[C@@H](C)C(=O)O)c(=O)oc2c(C)c3oc4c(c3cc12)CCCC4,–,"3.16 µM [falling, partial curve, poor fit]"
COc1ccc(C(=O)NCc2ccc(-c3nc4ccccc4s3)cc2)cc1,"3.98 µM [rising, partial curve, poor fit]",–
COc1ccc(C(=O)Nc2ccc(S(=O)(=O)N3CCCC3)cc2)c(OC)c1,"20.6 µM [rising, single point]",–
CCCCn1c(SCC(N)=O)nc2sc3c(c2c1=O)CCC3,"3.98 µM [rising, partial curve, poor fit]",–
COc1cc(C(=O)NC2CCN(CC(=O)Nc3cccc(C)c3C)CC2)cc(OC)c1OC,"7.08 µM [rising, full curve, poor fit]",–
CCOC(=O)c1ccc(N2C(=O)CC(N3CCN(C(=O)c4ccccc4)CC3)C2=O)cc1 (centres undefined),"12.6 µM [rising, single point]",–
O=C(CCN1C(=O)/C(=C/c2ccc3c(c2)OCO3)SC1=S)Nc1ccccc1,"9.2 µM [falling, partial curve, poor fit]",–
CCN(C(=O)COC(=O)c1cc([N+](=O)[O-])ccc1N1CCOCC1)C1CCCCC1,"16.4 µM [rising, single point]","4.11 µM [falling, single point]"
O=C(O)C1=CCCN(CCON=C(c2ccccc2)c2ccccc2)C1,"20.6 µM [falling, partial curve, poor fit]",–
O=c1[nH]c(CCl)nc2cc(-c3ccc(Cl)cc3)sc12,"9.2 µM [falling, partial curve, poor fit]",–
Cc1nc(SCc2ccc(Br)cc2)[nH]c(=O)c1C,"25.9 µM [rising, partial curve, poor fit]","20.6 µM [falling, single point]"
CCN1C(=O)C(CC(=O)Nc2ccc(OC)cc2)N(Cc2ccco2)C1=S (centres undefined),"20.6 µM [falling, single point]",–
O=C(Nc1cc(SCCO)cc([N+](=O)[O-])c1)c1ccco1,"6.51 µM [rising, full curve]",–
O=C(CSc1nc(-c2ccccc2)c(-c2ccccc2)o1)Nc1nncs1,"1.3 µM [falling, full curve, poor fit]",–
CN(C)S(=O)(=O)c1ccc(NC(=O)COC(=O)c2n[nH]c3ccccc23)cc1,"20 µM [falling, single point]",–
CC(C)(CO)NCc1c(OCc2ccc(Cl)cc2)ccc2ccccc12,"35.5 µM [falling, single point]",–
CC(C)(C)c1ccc(/C=N/Nc2cccc(C(=O)O)c2)cc1,"11.2 µM [falling, partial curve, poor fit]",–
O=C(NCCCN1CCOCC1)C(=O)N/N=C/c1ccccc1Cl,–,"25.1 µM [rising, partial curve, poor fit]"

# Filtered by structure: those above containing a CF3 group
SMILES,AC50 [1],AC50 [2]
O=C(/C(N=Nc1cccc(C(F)(F)F)c1)=C(/O)c1cccs1)C(F)(F)F,"0.282 µM [falling, full curve, poor fit]",–
CO/N=C/C(NC(=O)c1ccc(C(F)(F)F)cc1)C(=O)OC (centres undefined),"35.5 µM [falling, single point]",–
